Measurements from US20240140953A1, “INHIBITORS OF MENIN-MLL INTERACTION” (BIOMEA FUSION, INC., priority 2018, published 2024).

Key:
[1] = test system: HL-60; assay: Proliferation study, CellTiterGlo, 4 days (Example 102), HL-60; assay type: cell-based; conditions: HL-60, 4 days treatment, slope of concentration response curve
Text: (§1) The objective of the study was to evaluate the ability of representative compounds of the present invention, inhibitors of Menin/MLL interaction to inhibit cell proliferation. The proliferation inhibitory effect was investigated in two human MLL-leukemia cells selected on the bases of MLL fusion protein and listed in Table 102. HL-60 cell line was used as negative control.
(§2) ATP is present in all metabolically active cells and is considered as a marker for cell viability and proliferation. The metabolic cell activity was determined using the CellTiter-Glo kit from Promega, an ATP monitoring system based on the production of luminescence by the reaction of ATP with added UltraGlo® recombinant luciferase (Kawano et al., 2016), according to the supplier's experimental recommendations.
(§3) The described assay evaluates the ability of 4 representative compounds to inhibit the cell proliferation in the human MLL-leukemia cells plus a negative control cell line.
(§4) The assay provides potency values (IC50) for each test compound at a single time point Day 4 (T4).
(§5) Seven concentrations of the compounds (2.00E-05-6.67E-06-2.22E-06-7.41E-07-2.47E-07-8.23E-08-2.74E-08M), were assessed in duplicate in an individual test occasion in all the cell lines. MI-503 (Borkin et al., 2015) was used as reference compound and was tested at the same concentrations as the NCEs. 100% of proliferation is represented by the untreated cells (0.2% DMSO). The cell growth was monitored up to 4 days in culture.
(§6) MV4-11, MOLM-13 and HL-60 cells (see Table 2) were maintained in RPMI-1640 medium (Invitrogen, Cat. n. 618700, Batch n. 1965930) supplemented with 10% of Heat Inactivated FBS (Invitrogen, Cat n. 10500, Batch n. 08Q8078K) and 1% Pen-Strep (Invitrogen, Cat. N. 15140, Batch n. 1910859) and cultured at 37° C. in a humidified incubator with 5% CO2. All the cell lines grow in suspension and the cell density was maintained in a range of 2×10^5-1×10^6 viable cells/ml. Cells were pelleted at 130 g×5 min and conditioned medium was used to dilute the cell suspension.
(§7) Test items were dissolved in glass vials at 10 mM in DMSO with purity ≥99.9% (Sigma, D8418, batch n. SHBH4245V) and stored at −20° C. in 1.5 mL Eppendorf tubes.
(§8) Serial dilutions 1 to 3 in DMSO 100% were prepared starting from a 10 mM stock solutions to generate 7 points concentration response curve (CRC).
(§9) For each plate to test, one 0.4 μL copy plate and four 0.3 μL copy plates were then stamped into 96-well plates not treated for cell adhesion (Sarstedt—cat.no. 82.1581.001) by acoustic liquid Handling, Echo, at a concentration which was 500 fold the final assay concentration. Stamped plates were stored at −20° C. The final concentrations for the reference compound, MI-503, and the test items were: 2.00E-05, 6.67E-06, 2.22E-06, 7.41E-07, 2.47E-07, 8.23E-08 and 2.74E-08 M.
Cells were plated in 96-well flat bottom microtiter plates at cell density of 15,000 cells/ml for HL-60, 1000 cells/ml for MOLM-13 and 10,000 cell/ml for MV4-11. […] Luminescence was read by using VictorV (Perkin Elmer) multilabel plate reader using the standard protocol for luminescence in 96 well plate. […]
(§10) Data were expressed as % of inhibition compared to the 0.2% DMSO negative control, and was calculated as follows: […]
CRCs were analysed by GraphPad and IC50 values were calculated by non-linear regression using 4 parameter-logistic equation. […]

[2] = test system: MV4-11 (MLL-AF4); assay: Proliferation study, CellTiterGlo, 4 days (Example 102), MV4-11; assay type: cell-based, human; conditions: MV4-11, 4 days treatment, slope of concentration response curve
Text: as §1, §2, §3, §4, §5, §6, §7, §8, §9
(§11) Cells were plated in 96-well flat bottom microtiter plates at cell density of 15,000 cells/ml for HL-60, 1000 cells/ml for MOLM-13 and 10,000 cell/ml for MV4-11. Cells were treated with 0.2% DMSO (Sigma, D8418, batch n. SHBH4245V) or serial dilutions of compounds (0.027 μM-20 μM) in DMSO (0.2% final concentration). Cells were incubated in a 5% CO2 incubator at 37° C. for 4 days. A CellTiterGlo viability assay (Promega) was employed. Luminescence was read by using VictorV (Perkin Elmer) multilabel plate reader using the standard protocol for luminescence in 96 well plate. The experiment was performed in duplicate.
as §10
(§12) CRCs were analysed by GraphPad and IC50 values were calculated by non-linear regression using 4 parameter-logistic equation. IC50 (μM) values were reported in the final data table. The curve fittings were performed leaving free all the parameters. Any constrain were reported in the results table.

[3] = test system: MOLM-13 (MLL-AF9); assay: Proliferation study, CellTiterGlo, 4 days (Example 102), MOLM-13; assay type: cell-based, human; conditions: MOLM-13, 4 days treatment, slope of concentration response curve
Text: as §1, §2, §3, §4, §5, §6, §7, §8, §9, §11, §10, §12

Structure (SMILES)	HL-60 slope [1]	MV4-11 (MLL-AF4) slope [2]	MOLM-13 (MLL-AF9) slope [3]
Cc1c(CN2CCC(Nc3ncnc4sc(CC(F)(F)F)cc34)CC2)ccc2c1cc(C#N)n2Cc1cn[nH]c1 [MI-503, reference compound]	1	1.4	1
O=C(Cc1cc(-c2cccnc2)n[nH]1)Nc1ccc(-c2nc3c(N4CCOCC4)ncnc3[nH]2)cc1 [Compound 12, N-{4-[6-(morpholin-4-yl)-9H-purin-8-yl]phenyl}-2-[3-(pyridin-3-yl)-1H-pyrazol-5-yl]acetamide]	–	4.1	13.1
O=C(Nc1ccc(-c2cc3c(N4CCOCC4)ncnc3[nH]2)cc1)Nc1cc(-c2cccnc2)n[nH]1 [Compound 9, 1-{4-[4-(morpholin-4-yl)-7H-pyrrolo[2,3-d]pyrimidin-6-yl]phenyl}-3-[3-(pyridin-3-yl)-1H-pyrazol-5-yl]urea]	0.7	0.8	1.1
Cn1nc(-c2cccnc2)cc1CC(=O)Nc1ccc(-c2cc3c(N4CCOCC4)ncnc3[nH]2)cc1 [Compound 11, 2-[1-methyl-3-(pyridin-3-yl)-1H-pyrazol-5-yl]-N-{4-[4-(morpholin-4-yl)-7H-pyrrolo[2,3-d]pyrimidin-6-yl]phenyl}acetamide]	1.1	1.5	2.6
Cc1cn(-c2ncnc3[nH]c(-c4ccc(NC(=O)Cc5cc(-c6cccnc6)n[nH]5)cc4)cc23)cn1 [Compound 13, N-{4-[4-(4-methyl-1H-imidazol-1-yl)-7H-pyrrolo[2,3-d]pyrimidin-6-yl]phenyl}-2-[3-(pyridin-3-yl)-1H-pyrazol-5-yl]acetamide]	1.1	1.1	1.4
O=C(Cc1cc(-c2cccnc2)n[nH]1)Nc1ccc(-c2cc3c(N4CCOCC4)ncnc3[nH]2)cc1 [Compound 10, N-{4-[4-(morpholin-4-yl)-7H-pyrrolo[2,3-d]pyrimidin-6-yl]phenyl}-2-[3-(pyridin-3-yl)-1H-pyrazol-5-yl]acetamide]	1.6	2.9	2.5
